PubChem BioAssay AID686938, Drosophila RNAi Screening Center – 2013
The screen tested about 23,000 reagents; below is an unselected part of those with a known target gene and a result. Of all reagents, 75 (0.33%) got an active call. 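Raw plate signals without normalisation; calls rest on plate z-scores that were not deposited; ratio present for only 364 wells.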 A number with no mark means an inactive call. Reagents against one gene are numbered here. Not stated in the record: the dose of the treatment.

- Aim: 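Fly genes required for calcium entry once internal stores are emptied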 (primary screen)
- Cell system: Drosophila S2R+ cells
- Reagent: long dsRNA against Drosophila genes, about 0.25 µg dsRNA per well, roughly 10,000 cells
- Duration: 5 days of knock-down before the calcium assay
- Treatment: thapsigargin (SERCA pump blocker) to empty calcium stores; entry signal taken 4 min after adding it
- Measured: 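Duplicate raw fluo-4 intensities per well from a plate reader, at rest and four minutes after thapsigargin emptied calcium stores; entry-to-rest ratio filled for only some wells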
- Reading the numbers: calcium entry signal: higher = stronger calcium signal after store depletion; resting calcium signal: higher = higher resting calcium signal
- Rule for the call: 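Hit if the duplicate-averaged plate z-score for entry over resting signal is under −3; wells with weak total dye signal (Fmax z < −2) or more than 5 off-targets removed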
- Calls: active = strongly reduced calcium entry; inactive = no strong reduction

The opening 2 records, ahead of the listing:
gene knocked down | reagent | calcium entry signal, replicate 1 (fluorescence units) | calcium entry signal, replicate 2 (fluorescence units) | resting calcium signal, replicate 1 (fluorescence units) | resting calcium signal, replicate 2 (fluorescence units)
Tat | 1 | 2.76e7 | 3.43e7 | 1.35e7 | 1.38e7
CG32249 | 1 | 5.25e7 | 3.35e7 | 2.79e7 | 1.58e7

Results, from the start:
gene knocked down | reagent | calcium entry signal, replicate 1 (fluorescence units) | calcium entry signal, replicate 2 (fluorescence units) | resting calcium signal, replicate 1 (fluorescence units) | resting calcium signal, replicate 2 (fluorescence units)
Tat | 1 | 2.76e7 | 3.43e7 | 1.35e7 | 1.38e7
CG32249 | 1 | 5.25e7 | 3.35e7 | 2.79e7 | 1.58e7
CG32249 | 2 | 2.32e7 | 4.13e7 | 1.22e7 | 1.74e7
CG32249 | 3 | 4.58e7 | 3.78e7 | 2.16e7 | 1.72e7
CG30357 | 1 | 3.87e7 | 3.06e7 | 2.04e7 | 1.50e7
fan | 1 | 3.47e7 | 4.05e7 | 1.54e7 | 1.87e7
Fen1 | 1 | 3.47e7 | 3.18e7 | 1.50e7 | 1.54e7
CG5715 | 1 | 3.41e7 | 4.95e7 | 1.98e7 | 2.04e7
CR17567 (retired record) | 1 | 4.57e7 | 6.17e7 | 2.28e7 | 2.57e7
CR17567 (retired record) | 2 | 2.38e7 | 2.77e7 | 1.32e7 | 1.25e7
REPTOR-BP | 1 | 2.69e7 | 3.41e7 | 1.45e7 | 1.37e7
CG11030 | 1 | 2.20e7 | 2.19e7 | 1.23e7 | 1.25e7
ras | 1 | 3.68e7 | 2.83e7 | 1.61e7 | 1.42e7
CG1647 | 1 | 3.76e7 | 4.58e7 | 1.67e7 | 1.92e7
Mctp | 1 | 4.46e7 | 5.55e7 | 2.02e7 | 2.50e7
Mctp | 2 | 3.28e7 | 4.26e7 | 1.94e7 | 1.80e7
CG3491 | 1 | 3.81e7 | 2.20e7 | 1.65e7 | 1.18e7
CG4679 | 1 | 2.93e7 | 4.87e7 | 1.46e7 | 1.92e7
Srp54 | 1 | 2.31e7 | – | 1.51e7 | –
CG9265 | 1 | 5.87e7 | 4.55e7 | 2.73e7 | 1.94e7
CG9265 | 2 | 5.66e7 | 4.67e7 | 2.70e7 | 2.12e7
CIA30 | 1 | 3.02e7 | 3.48e7 | 1.25e7 | 1.52e7
Cyp12c1 | 1 | 2.97e7 | 4.06e7 | 1.37e7 | 2.65e7
Or67b | 1 | 2.99e7 | 3.92e7 | 1.50e7 | 1.78e7
